Measurements taken from paper doi:10.1101/2020.08.14.246132.
No constants are given. Whether binding was seen depends on the method and setting. Binding seen in cells or lysates may run through a third protein. Some binding calls cover weakened binding; strength is not graded here. Where a sequence is shown, tags or fusion partners need not be part of it.

Target: T1, Full-length human NLRP1 with a C-terminal FLAG tag (NLRP1-FLAG), wild type (human), Q9C000
T1 chain: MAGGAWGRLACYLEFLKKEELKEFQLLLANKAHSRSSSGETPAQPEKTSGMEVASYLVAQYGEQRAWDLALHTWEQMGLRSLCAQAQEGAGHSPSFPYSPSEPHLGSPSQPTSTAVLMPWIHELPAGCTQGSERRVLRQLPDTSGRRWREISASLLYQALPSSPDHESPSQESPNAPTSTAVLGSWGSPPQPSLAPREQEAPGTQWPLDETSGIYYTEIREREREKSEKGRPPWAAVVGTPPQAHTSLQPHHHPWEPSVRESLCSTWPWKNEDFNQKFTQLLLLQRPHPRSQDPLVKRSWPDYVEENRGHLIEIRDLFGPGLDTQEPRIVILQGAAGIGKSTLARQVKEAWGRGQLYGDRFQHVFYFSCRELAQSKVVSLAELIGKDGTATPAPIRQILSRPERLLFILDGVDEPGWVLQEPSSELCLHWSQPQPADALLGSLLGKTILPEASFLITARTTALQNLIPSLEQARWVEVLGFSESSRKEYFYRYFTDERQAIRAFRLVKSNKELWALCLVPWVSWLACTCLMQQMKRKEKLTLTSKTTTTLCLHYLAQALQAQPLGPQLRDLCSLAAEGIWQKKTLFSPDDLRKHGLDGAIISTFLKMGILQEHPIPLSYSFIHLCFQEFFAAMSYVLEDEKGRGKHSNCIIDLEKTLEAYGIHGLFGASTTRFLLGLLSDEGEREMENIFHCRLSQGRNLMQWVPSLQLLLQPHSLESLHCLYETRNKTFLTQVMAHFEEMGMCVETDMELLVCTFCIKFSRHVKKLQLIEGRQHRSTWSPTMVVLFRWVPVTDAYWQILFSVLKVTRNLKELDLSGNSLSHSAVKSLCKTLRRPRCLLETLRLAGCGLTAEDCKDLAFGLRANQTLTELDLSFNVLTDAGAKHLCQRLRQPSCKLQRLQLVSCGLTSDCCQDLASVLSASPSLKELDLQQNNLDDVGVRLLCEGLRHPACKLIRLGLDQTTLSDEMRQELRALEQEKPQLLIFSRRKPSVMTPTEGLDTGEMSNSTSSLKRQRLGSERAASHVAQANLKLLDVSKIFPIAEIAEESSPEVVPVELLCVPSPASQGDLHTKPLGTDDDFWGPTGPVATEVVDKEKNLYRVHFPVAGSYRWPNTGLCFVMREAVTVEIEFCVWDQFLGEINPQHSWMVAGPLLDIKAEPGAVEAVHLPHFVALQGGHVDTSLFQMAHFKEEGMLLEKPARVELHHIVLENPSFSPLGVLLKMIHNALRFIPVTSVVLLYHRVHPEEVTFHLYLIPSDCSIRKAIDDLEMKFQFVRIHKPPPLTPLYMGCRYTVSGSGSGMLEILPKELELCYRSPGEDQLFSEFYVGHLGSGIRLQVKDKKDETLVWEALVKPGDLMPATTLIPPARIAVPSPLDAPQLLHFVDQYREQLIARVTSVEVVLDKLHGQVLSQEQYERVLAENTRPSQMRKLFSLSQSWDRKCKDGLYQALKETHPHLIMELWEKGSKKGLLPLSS
Assay: co-IP
Conditions: remark: other sources report otherwise

- binding: binds
B1: DPP9, short isoform, N-terminal His tag (His-TEV-DPP9), wild type, for co-immunoprecipitation, Q86TI2-1 1-863 (enzyme)
chain: MATTGTPTADRGDAAATDDPAARFQVQKHSWDGLRSIIHGSRKYSGLIVNKAPHDFQFVQKTDESGPHSHRLYYLGMPYGSRENSLLYSEIPKKVRKEALLLLSWKQMLDHFQATPHHGVYSREEELLRERKRLGVFGITSYDFHSESGLFLFQASNSLFHCRDGGKNGFMVSPMKPLEIKTQCSGPRMDPKICPADPAFFSFINNSDLWVANIETGEERRLTFCHQGLSNVLDDPKSAGVATFVIQEEFDRFTGYWWCPTASWEGSEGLKTLRILYEEVDESEVEVIHVPSPALEERKTDSYRYPRTGSKNPKIALKLAEFQTDSQGKIVSTQEKELVQPFSSLFPKVEYIARAGWTRDGKYAWAMFLDRPQQWLQLVLLPPALFIPSTENEEQRLASARAVPRNVQPYVVYEEVTNVWINVHDIFYPFPQSEGEDELCFLRANECKTGFCHLYKVTAVLKSQGYDWSEPFSPGEDEFKCPIKEEIALTSGEWEVLARHGSKIWVNEETKLVYFQGTKDTPLEHHLYVVSYEAAGEIVRLTTPGFSHSCSMSQNFDMFVSHYSSVSTPPCVHVYKLSGPDDDPLHKQPRFWASMMEAASCPPDYVPPEIFHFHTRSDVRLYGMIYKPHALQPGKKHPTVLFVYGGPQVQLVNNSFKGIKYLRLNTLASLGYAVVVIDGRGSCQRGLRFEGALKNQMGQVEIEDQVEGLQFVAEKYGFIDLSRVAIHGWSYGGFLSLMGLIHKPQVFKVAIAGAPVTVWMAYDTGYTERYMDVPENNQHGYEAGSVALHVEKLPNEPNRLLILHGFLDENVHFFHTNFLVSQLIRAGKPYQLQIYPNERHSIRCPESGEHYEVTLLHFLQEYL
